Data as given in PubChem BioAssay AID504744 (Drosophila RNAi Screening Center, 2011).
Screen: 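Find genes whose loss alters insulin-driven dAkt phosphorylation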 (primary screen). Cells: Drosophila Kc167 cells. Reagents: long dsRNA against Drosophila genes, 250 ng dsRNA per well of a 384-well plate. Timing: 3 days of knock-down, then overnight serum-free starvation before stimulation. Treatment: bovine insulin at 387 nM for 10 minutes after 12 h without serum. Measurement: 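In-cell antibody fluorescence for phospho-dAkt in each well over DNA-dye signal, with log2 residuals expressed as z-scores adjusted for cell count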. Call rule: 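Hit in the insulin screen when the two-replicate mean z-score is more extreme than plus or minus 2.5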.
In all, the deposit lists about 23,000 reagents; shown is a random part of those with a known target gene and a result. Of all reagents, 98 (0.43%) got an active call. 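Only hit calls are given; the phospho-dAkt signals, z-scores and hit direction were not deposited.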 Reagents against one gene are numbered here. A plus sign joins genes that one reagent is predicted to hit.

no.	target gene	reagent no.	Call
1	CG3104	1	inactive
2	CG30395	1	inactive
3	AstC-R2 (Allatostatin C receptor 2)	1	inactive
4	DptA (Diptericin A)	1	inactive
5	CG32582 (retired record)	1	inactive
6	wge (winged eye)	1	inactive
7	wge (winged eye)	2	inactive
8	CG32713	1	inactive
9	Tsp42Ec (Tetraspanin 42Ec)	1	inactive
10	Der-2 (Derlin-2)	1	inactive
11	Myo61F (Myosin 61F)	1	inactive
12	CanA1 (Calcineurin A1)	1	inactive
13	CG2652	1	inactive
14	CG2652	2	inactive
15	ND-B14.5B (NADH dehydrogenase (ubiquinone) B14.5 B subunit)	1	inactive
16	Gyg (Glycogenin)	1	inactive
17	Gyg (Glycogenin)	2	inactive
18	CG5445	1	inactive
19	Apc2 (Adenomatous polyposis coli 2)	1	inactive
20	Sans (Scaffold protein containing ankyrin repeats and SAM domain)	1	inactive
21	CG42336	1	inactive
22	CG42336	2	inactive
23	CG42336	3	inactive
24	CG13375	1	inactive
25	Ack (Activated Cdc42 kinase)	1	inactive
26	Hmgcl (3-Hydroxymethyl-3-methylglutaryl-CoA lyase)	1	inactive
27	CG31676	1	inactive
28	CG10512	1	inactive
29	bsh (brain-specific homeobox)	1	inactive
30	GILT1 (Gamma-interferon-inducible lysosomal thiol reductase 1)	1	inactive
31	CaMKI (Calcium/calmodulin-dependent protein kinase I)	1	inactive
32	Cyp9b2 (Cytochrome P450 9b2)	1	inactive
33	CG42662 + CG30080	1	inactive
34	Gpo3 (Glycerophosphate oxidase 3)	1	inactive
35	CG14130	1	inactive
36	Tfb1 (Transcription factor B1)	1	inactive
37	CG15386 + CG42371	1	inactive
38	Prosbeta2 (Proteasome beta2 subunit)	1	inactive
39	prd (paired)	1	inactive
40	CG43740	1	inactive
41	CG34231	1	inactive
42	CG18210 (retired record)	1	inactive
43	CG18210 (retired record)	2	inactive
44	Pde11 (Phosphodiesterase 11)	1	inactive
45	Pde11 (Phosphodiesterase 11)	2	inactive
46	CG18549	1	inactive
47	Roc1a (Regulator of cullins 1a)	1	inactive
48	RpS24 (Ribosomal protein S24)	1	inactive
49	Icmt (Isoprenylcysteine carboxyl methyltransferase)	1	inactive
50	agt (O-6-alkylguanine-DNA alkyltransferase)	1	inactive
51	side-VI (sidestep VI)	1	inactive
52	side-VI (sidestep VI)	2	inactive
53	side-VI (sidestep VI)	3	inactive
54	side-VI (sidestep VI)	4	inactive
55	tth (toothrin)	1	inactive
56	Sgs7 (Salivary gland secretion 7)	1	inactive
57	FMRFa (FMRFamide)	1	inactive
58	CG32191	1	inactive
59	CG14195	1	inactive
60	mesh	1	inactive
61	mesh	2	inactive
62	mesh	3	inactive
63	Gr23a (Gustatory receptor 23a)	1	inactive
64	nrv2 (nervana 2)	1	inactive
65	nrv2 (nervana 2)	2	inactive
66	CG12522	1	inactive
67	DIP-kappa (Dpr-interacting protein kappa)	1	inactive
68	DIP-kappa (Dpr-interacting protein kappa)	2	inactive
69	Cpr76Ba (Cuticular protein 76Ba)	1	inactive
70	CG8229 + CG33199	1	inactive
71	nolo (no long nerve cord)	1	inactive
72	nolo (no long nerve cord)	2	inactive
73	nolo (no long nerve cord)	3	inactive
74	Arf1 (ADP ribosylation factor 1)	1	inactive
75	CG15198	1	inactive
76	dbr (debra)	1	inactive
77	CG34026	1	inactive
78	Spn42Db (Serpin 42Db)	1	inactive
79	Ufl1 (UFM1 specific ligase 1)	1	inactive
80	Bruce (BIR repeat containing ubiquitin-conjugating enzyme)	1	inactive
81	THG (tRNA-histidine guanylyltransferase)	1	inactive
82	Cpsf5 (Cleavage and polyadenylation specific factor 5)	1	inactive
83	mTTF (mitochondrial transcription termination factor)	1	inactive
84	ND-51L2 (NADH dehydrogenase (ubiquinone) 51 kDa subunit-like 2)	1	inactive
85	Lcp65Ad	1	inactive
86	E(spl)mgamma-HLH (Enhancer of split mgamma, helix-loop-helix)	1	inactive
87	CG13484	1	inactive
88	Hsp70Bb + Hsp70Bbb	1	inactive
89	VhaSFD (Vacuolar H[+]-ATPase SFD subunit)	1	inactive
90	CG13385	1	inactive
91	Nubp1 (NUBP iron-sulfur cluster assembly factor 1)	1	inactive
92	CG8490	1	inactive
93	Nmdar2 (NMDA receptor 2)	1	inactive
94	Nmdar2 (NMDA receptor 2)	2	inactive
95	Nmdar2 (NMDA receptor 2)	3	inactive
96	orb2	1	inactive
97	orb2	2	inactive
98	orb2	3	inactive
99	Tsen34 + Trl	1	inactive
100	CG42268	1	inactive
101	CG42268	2	inactive
102	CG42268	3	inactive
103	Tengl2 (Testis EndoG-Like 2)	1	inactive
104	Dyrk3 (Dual-specificity tyrosine phosphorylation-regulated kinase 3)	1	inactive
105	CG7974	1	inactive
106	DCP1 (Decapping protein 1)	1	inactive
107	Eglp3 (Entomoglyceroporin 3)	1	inactive
108	DZIP1	1	inactive
109	CG11180	1	inactive
110	Mlp60A (Muscle LIM protein at 60A)	1	inactive
111	Mlp60A (Muscle LIM protein at 60A)	2	inactive
112	Mlp60A (Muscle LIM protein at 60A)	3	inactive
113	tHMG2 (testis-enriched HMG-box-containing protein 2)	1	inactive
114	Swip-1 (Swiprosin-1)	1	inactive
115	Swip-1 (Swiprosin-1)	2	inactive
116	kar (karmoisin)	1	inactive
117	CG8675	1	inactive
118	Obp47b + CG7741	1	inactive
119	CG11964	1	inactive
120	CG7194	1	inactive
121	CG4734	1	inactive
122	CG4734	2	inactive
123	LManV (Lysosomal alpha-mannosidase V)	1	inactive
124	beta4GalNAcTA (beta1,4-N-acetylgalactosaminyltransferase A)	1	inactive
125	DCP2 (Decapping protein 2)	1	inactive
126	gny (garnysstan)	1	inactive
127	g (garnet)	1	inactive
128	CG14408	1	inactive
129	CG4815	1	inactive
130	AANATL2 (Arylalkylamine N-acetyltransferase-like 2)	1	active
131	Ptpmeg (Protein tyrosine phosphatase Meg)	1	inactive
132	CG31473	1	inactive
133	CG7423	1	inactive
134	CG10970	1	inactive
135	CG9915	1	inactive
136	Nipped-B	1	inactive
137	OSCP1	1	inactive
138	Lip4 (Lipase 4)	1	inactive
139	m-cup (mann-cup)	1	inactive
140	ple (pale)	1	inactive
141	CG10969	1	inactive
142	CG13126	1	inactive
143	slmb (supernumerary limbs)	1	inactive
144	Rsbp15 (Radial spoke binding protein 15)	1	inactive
145	CG13364	1	inactive
146	CG13364	2	inactive
147	CG9254	1	inactive
148	CG11779 + CG5835	1	inactive
149	puf (puffyeye)	1	inactive
150	Cpr62Ba (Cuticular protein 62Ba)	1	inactive
151	CG43325	1	inactive
152	CG11590	1	inactive
153	CG13377	1	inactive
154	mspo (M-spondin)	1	inactive
155	CG7304	1	inactive
156	CG13405	1	inactive
157	RpS10b (Ribosomal protein S10b)	1	inactive
158	Mms19	1	inactive
159	Glut3 (Glucose transporter type 3)	1	inactive
160	gskt (gasket)	1	inactive
161	lola (longitudinals lacking)	1	inactive
162	lola (longitudinals lacking)	2	inactive
163	lola (longitudinals lacking)	3	inactive
164	lola (longitudinals lacking)	4	inactive
165	lola (longitudinals lacking)	5	inactive
166	lola (longitudinals lacking)	6	inactive
167	lola (longitudinals lacking)	7	inactive
168	lola (longitudinals lacking)	8	inactive
169	lola (longitudinals lacking)	9	inactive
170	lola (longitudinals lacking)	10	inactive
171	lola (longitudinals lacking)	11	inactive
172	lola (longitudinals lacking)	12	inactive
173	eIF4EHP	1	inactive
174	eIF4EHP	2	inactive
175	Obp18a (Odorant-binding protein 18a)	1	inactive
176	kat80 (katanin 80)	1	inactive
177	kat80 (katanin 80)	2	inactive
178	CG15387	1	inactive
179	CG8079	1	inactive
180	CG8079	2	inactive
181	lncRNA:Hsromega (Heat shock RNA omega)	1	inactive
182	swaPsi (swallow pseudogene)	1	inactive
183	SmydA-5 (SET and MYND domain containing, arthropod-specific, member 5)	1	inactive
184	Cals (Calsyntenin)	1	inactive
185	Cals (Calsyntenin)	2	inactive
186	CG17959	1	inactive
187	Rim (Rab3 interacting molecule)	1	inactive
188	Rim (Rab3 interacting molecule)	2	inactive
189	Rim (Rab3 interacting molecule)	3	inactive
190	Rim (Rab3 interacting molecule)	4	inactive
191	Rim (Rab3 interacting molecule)	5	inactive
192	CG31431	1	inactive
193	kni (knirps)	1	inactive
194	eyg (eyegone)	1	inactive
195	CG13426	1	inactive
196	arx (asterix)	1	inactive
197	CG15253	1	inactive
198	MESR6 (Misexpression suppressor of ras 6)	1	inactive
199	jim	1	inactive
200	Arl2 (ADP ribosylation factor-like 2)	1	inactive

Look-ups from the entries so far:
Roc1a (Regulator of cullins 1a), Call = inactive
Entry of lola (longitudinals lacking) #1 in “Call”: inactive
Arl2 (ADP ribosylation factor-like 2), Call → inactive
CG4815, Call = inactive
CG32191, Call = inactive
Entry of Cpsf5 (Cleavage and polyadenylation specific factor 5) under “Call”: inactive
